Some results were stated once for a whole list of compounds, not compound by compound.
System: NHEK cells
Test: Protection of NHEK cells against methylglyoxal (MG) alone or MG plus UV, MTT viability assay
Type: cell-based, human
[1] = 5 μM, NHEK cells exposed to MG alone (1 mM)
[2] = 5 μM, NHEK cells exposed to the combination of MG and UV
[3] = 25 μM, NHEK cells exposed to MG alone (1 mM)
[4] = 25 μM, NHEK cells exposed to the combination of MG and UV

Measured: percentage protection value

Oc1ccc(C=Cc2cc(O)cc(O)c2)cc1 [resveratrol, 3,5,4′-trihydroxystilbene]
below 25%: [1] | [2] | [3] | [4]

COc1cc(/C=C/C(=O)O)ccc1O [ferulic acid]
below 25%: [1] | [2] | [3] | [4]

Source: US9220669B2, “Resveratrol ferulate compounds, compositions containing the compounds, and methods of using the same” (ELC Management LLC, priority 2007, dated 2015)
